Our source for the binding values is publication PMC5225424.

Protein sequences, listed by entry. Tags and fused reporters are not part of them.
UniProt Q8W171: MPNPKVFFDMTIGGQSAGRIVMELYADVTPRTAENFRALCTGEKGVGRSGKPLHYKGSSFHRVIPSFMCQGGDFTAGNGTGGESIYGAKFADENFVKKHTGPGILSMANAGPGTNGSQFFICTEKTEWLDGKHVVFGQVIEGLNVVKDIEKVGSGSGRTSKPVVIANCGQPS

No constants are given. Whether binding was seen depends on the method and setting. In cells and extracts the contact can be indirect. Some results given as binding are weak or reduced against the parent protein; the word gives no strength.

This assay concerns the target GmCYP1 BiFC fusion (GmCYP1-YN or GmCYP1-YC) (soybean (Glycine max)) (UniProt Q8W171). The assay is described as follows: split reporter; BiFC: YN and YC fusions co-expressed in N. benthamiana leaf epidermal cells by Agrobacterium infiltration; confocal microscopy of YFP (excitation 514 nm, emission 525-545 nm).

“GmCYP1 BiFC fusion (GmCYP1-YN or GmCYP1-YC) (from UniProt Q8W171 1-172)”: the binding result is “binds”.
